Measurements from the supplement of paper PMC10849652.
Some of the results follow.

The chains behind the UniProt entries cited, without tags or fusion partners. Where a name states a change or a piece, a line headed by the entry shows the natural chain unless it says otherwise.
UniProt Q5BJD5: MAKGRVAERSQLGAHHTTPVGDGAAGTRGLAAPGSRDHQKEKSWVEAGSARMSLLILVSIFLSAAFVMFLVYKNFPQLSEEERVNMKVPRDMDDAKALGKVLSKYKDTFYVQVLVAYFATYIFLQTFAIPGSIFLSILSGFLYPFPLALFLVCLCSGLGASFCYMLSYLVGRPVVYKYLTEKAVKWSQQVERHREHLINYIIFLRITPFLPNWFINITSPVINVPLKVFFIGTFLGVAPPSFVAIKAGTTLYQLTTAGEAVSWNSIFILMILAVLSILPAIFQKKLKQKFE
UniProt Q9NWD8: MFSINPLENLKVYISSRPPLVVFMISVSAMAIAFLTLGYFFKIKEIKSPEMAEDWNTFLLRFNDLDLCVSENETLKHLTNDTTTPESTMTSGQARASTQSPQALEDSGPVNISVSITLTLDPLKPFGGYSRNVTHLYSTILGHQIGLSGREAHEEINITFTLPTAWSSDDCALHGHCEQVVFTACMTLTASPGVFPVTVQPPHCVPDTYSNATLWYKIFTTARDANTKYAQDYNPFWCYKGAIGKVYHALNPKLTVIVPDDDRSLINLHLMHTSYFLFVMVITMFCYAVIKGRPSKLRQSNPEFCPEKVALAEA
UniProt P55327: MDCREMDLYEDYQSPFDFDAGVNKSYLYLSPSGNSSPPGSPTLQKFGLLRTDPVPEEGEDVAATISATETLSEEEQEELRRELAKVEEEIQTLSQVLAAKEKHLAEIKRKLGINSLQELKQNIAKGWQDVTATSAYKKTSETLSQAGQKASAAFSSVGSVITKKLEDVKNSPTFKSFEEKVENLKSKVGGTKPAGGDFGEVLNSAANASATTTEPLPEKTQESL
UniProt P41273, whole entry, looked up: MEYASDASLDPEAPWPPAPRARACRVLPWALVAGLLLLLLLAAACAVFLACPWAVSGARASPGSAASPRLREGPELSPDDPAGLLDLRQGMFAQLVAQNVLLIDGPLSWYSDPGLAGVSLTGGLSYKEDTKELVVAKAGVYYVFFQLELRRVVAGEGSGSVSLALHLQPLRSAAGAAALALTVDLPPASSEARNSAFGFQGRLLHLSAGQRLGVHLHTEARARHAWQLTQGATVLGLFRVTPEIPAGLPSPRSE
UniProt Q5T4D3: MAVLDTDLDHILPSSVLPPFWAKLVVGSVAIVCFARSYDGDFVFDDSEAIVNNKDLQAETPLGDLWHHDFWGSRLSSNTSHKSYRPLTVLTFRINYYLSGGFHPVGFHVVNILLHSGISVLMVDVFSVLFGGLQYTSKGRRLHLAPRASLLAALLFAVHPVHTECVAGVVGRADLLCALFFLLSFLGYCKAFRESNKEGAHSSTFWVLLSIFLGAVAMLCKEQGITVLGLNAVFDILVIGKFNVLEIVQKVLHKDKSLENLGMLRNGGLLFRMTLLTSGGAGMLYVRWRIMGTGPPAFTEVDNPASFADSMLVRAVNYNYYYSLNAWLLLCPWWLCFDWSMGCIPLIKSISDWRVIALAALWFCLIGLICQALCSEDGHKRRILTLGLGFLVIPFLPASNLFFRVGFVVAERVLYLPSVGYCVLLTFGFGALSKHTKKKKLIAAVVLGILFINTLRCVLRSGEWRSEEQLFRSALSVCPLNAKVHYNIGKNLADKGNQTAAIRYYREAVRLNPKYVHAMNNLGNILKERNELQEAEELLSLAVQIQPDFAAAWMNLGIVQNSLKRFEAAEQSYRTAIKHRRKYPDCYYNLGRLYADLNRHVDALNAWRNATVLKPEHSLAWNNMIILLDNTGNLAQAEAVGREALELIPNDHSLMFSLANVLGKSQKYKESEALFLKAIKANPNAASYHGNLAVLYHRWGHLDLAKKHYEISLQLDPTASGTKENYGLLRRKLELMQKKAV
UniProt Q9BRR3: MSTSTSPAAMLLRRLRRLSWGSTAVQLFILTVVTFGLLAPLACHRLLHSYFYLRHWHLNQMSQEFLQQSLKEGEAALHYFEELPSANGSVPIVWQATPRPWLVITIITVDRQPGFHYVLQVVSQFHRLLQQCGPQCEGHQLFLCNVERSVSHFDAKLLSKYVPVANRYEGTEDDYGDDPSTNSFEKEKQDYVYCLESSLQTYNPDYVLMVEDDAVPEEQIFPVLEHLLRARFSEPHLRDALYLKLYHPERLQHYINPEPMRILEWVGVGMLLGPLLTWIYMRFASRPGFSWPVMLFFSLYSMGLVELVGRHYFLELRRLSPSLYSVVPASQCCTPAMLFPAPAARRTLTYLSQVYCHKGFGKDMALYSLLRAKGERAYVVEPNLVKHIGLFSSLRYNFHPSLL
UniProt Q4KMQ1: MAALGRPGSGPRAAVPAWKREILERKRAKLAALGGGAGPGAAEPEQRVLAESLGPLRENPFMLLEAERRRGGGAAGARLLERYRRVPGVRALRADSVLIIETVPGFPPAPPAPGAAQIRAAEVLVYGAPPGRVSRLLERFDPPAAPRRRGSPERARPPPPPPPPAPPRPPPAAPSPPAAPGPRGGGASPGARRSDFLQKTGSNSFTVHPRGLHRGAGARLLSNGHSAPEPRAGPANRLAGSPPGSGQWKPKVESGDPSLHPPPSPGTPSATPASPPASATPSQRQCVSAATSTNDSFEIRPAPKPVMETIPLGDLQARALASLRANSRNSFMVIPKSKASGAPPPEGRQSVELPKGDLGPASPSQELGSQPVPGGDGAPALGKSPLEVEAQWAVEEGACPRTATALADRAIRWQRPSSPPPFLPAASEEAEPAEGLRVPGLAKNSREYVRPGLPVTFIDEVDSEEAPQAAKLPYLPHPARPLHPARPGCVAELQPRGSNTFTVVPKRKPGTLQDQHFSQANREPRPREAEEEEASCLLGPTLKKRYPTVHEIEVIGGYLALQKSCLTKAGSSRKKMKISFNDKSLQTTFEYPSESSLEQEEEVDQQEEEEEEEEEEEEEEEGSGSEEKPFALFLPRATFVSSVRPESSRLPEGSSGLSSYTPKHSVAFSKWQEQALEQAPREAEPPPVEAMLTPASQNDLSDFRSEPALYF
UniProt Q5T292: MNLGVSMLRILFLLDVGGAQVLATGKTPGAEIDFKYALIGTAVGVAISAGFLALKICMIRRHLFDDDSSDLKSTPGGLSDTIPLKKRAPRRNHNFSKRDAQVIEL
UniProt Q86W33: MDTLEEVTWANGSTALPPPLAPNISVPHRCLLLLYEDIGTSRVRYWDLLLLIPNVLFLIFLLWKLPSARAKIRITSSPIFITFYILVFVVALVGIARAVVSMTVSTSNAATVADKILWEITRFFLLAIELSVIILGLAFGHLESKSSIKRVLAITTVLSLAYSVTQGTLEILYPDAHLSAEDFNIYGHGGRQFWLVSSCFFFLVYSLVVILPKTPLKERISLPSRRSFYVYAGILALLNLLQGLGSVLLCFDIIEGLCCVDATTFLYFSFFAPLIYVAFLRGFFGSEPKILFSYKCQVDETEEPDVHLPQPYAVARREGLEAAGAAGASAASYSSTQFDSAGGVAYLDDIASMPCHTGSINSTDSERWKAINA
UniProt Q13641: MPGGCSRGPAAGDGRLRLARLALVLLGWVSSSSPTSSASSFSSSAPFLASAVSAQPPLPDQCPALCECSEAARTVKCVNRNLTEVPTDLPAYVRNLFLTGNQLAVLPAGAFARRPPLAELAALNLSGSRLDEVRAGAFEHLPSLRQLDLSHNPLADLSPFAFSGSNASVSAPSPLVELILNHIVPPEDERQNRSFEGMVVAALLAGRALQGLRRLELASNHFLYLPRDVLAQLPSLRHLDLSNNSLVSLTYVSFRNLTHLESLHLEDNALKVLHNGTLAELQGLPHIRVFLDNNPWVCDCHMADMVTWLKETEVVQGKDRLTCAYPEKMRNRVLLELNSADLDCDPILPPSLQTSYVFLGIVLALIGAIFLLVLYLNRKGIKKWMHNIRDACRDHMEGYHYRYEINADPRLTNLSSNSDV
UniProt H0YL14: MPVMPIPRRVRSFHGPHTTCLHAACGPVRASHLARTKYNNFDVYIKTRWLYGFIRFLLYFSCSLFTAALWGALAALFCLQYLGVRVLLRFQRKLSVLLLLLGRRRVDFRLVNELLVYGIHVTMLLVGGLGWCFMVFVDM
UniProt Q9HBL0: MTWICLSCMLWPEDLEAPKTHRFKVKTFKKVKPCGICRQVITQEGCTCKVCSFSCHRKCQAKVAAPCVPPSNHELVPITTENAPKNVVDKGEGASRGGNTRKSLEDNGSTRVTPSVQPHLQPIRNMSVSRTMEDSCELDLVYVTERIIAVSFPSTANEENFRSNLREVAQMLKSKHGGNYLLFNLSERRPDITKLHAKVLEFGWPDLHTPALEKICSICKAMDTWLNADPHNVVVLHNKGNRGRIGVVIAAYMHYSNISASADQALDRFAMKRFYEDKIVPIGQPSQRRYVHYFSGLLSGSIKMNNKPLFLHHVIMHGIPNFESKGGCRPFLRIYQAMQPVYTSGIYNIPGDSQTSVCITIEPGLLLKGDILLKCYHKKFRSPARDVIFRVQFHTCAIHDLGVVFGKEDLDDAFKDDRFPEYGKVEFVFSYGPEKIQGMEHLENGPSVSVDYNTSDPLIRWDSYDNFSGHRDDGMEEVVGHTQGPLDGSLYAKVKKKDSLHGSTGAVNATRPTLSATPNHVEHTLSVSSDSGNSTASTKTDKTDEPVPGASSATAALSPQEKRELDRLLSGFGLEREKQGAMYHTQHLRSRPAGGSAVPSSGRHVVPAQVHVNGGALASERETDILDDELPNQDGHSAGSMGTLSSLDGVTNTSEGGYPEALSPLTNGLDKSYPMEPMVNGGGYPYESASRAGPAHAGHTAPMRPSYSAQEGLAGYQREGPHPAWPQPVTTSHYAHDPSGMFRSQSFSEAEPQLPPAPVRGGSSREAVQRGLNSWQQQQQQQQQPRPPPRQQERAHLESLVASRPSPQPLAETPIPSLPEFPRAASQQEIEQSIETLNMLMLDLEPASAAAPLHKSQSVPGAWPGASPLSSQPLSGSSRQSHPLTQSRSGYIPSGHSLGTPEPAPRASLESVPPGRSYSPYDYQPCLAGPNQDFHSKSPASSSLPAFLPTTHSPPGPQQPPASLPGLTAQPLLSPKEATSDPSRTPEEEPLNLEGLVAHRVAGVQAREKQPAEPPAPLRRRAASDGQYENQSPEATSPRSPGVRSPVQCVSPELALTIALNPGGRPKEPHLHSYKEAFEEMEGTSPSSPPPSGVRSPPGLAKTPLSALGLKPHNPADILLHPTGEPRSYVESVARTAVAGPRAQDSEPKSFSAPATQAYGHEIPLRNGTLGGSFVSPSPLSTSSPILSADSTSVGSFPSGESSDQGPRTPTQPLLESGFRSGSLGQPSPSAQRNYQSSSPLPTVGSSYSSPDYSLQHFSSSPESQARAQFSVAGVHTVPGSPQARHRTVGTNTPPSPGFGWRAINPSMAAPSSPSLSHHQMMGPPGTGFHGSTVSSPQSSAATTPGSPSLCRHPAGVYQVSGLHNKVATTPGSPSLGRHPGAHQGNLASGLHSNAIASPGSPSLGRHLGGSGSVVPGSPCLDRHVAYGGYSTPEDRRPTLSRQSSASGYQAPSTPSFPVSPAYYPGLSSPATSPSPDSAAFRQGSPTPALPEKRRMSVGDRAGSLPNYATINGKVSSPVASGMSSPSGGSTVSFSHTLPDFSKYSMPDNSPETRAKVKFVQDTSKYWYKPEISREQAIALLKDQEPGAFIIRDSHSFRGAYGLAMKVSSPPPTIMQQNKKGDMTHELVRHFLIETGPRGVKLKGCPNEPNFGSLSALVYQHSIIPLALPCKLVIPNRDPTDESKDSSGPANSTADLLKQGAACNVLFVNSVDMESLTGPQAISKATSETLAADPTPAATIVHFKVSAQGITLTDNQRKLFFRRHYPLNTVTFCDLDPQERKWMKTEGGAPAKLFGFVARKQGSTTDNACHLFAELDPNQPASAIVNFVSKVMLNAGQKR

Columns and labels:
Experiment in all cases: log2 fold change, soluble protein after heating vs DMSO (PISA); higher = thermal stabilisation; K562 lysate, 10 uM; active = over 0.2 and 3.5 SD of the protein, either way, in both replicates (recomputed)
[1] = compound: CCCS(=O)(=O)Nc1ccc(F)c(C(=O)c2c[nH]c3ncc(Cl)cc23)c1F
In short: (§1)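 Quantification was by TMTpro 16plex LC-MS/MS with equalised channel sums, applied to the supernatant after 21,000xg for 90 min. Samples were crude K562 extract at 1 mg/mL protein in PBS pH 7.4 with 1 mM MgCl2, treated with 10 μM compound for 30 min, heated for 3 min across 48°C-58°C, pooled and brought to 0.5% NP-40 at 4°C. Values are log-two fold changes in thermal stability relative to solvent controls, from duplicates.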

[2] = compound: CCN(CCCOc1ccc2c(Nc3cc(CC(=O)Nc4cccc(F)c4)[nH]n3)ncnc2c1)CCOP(=O)(O)O [barasertib]
In short: as §1

[3] = compound: CC[C@@H]1C(=O)N(C)c2cnc(Nc3ccc(C(=O)NC4CCN(C)CC4)cc3OC)nc2N1C1CCCC1
In short: as §1

[4] = compound: CC[C@@H]1C(=O)N(C)c2cnc(Nc3ccc(C(=O)N[C@H]4CC[C@H](N5CCN(CC6CC6)CC5)CC4)cc3OC)nc2N1C(C)C [volasertib]
In short: as §1

[5] = compound: CCn1c(C(=O)N(C2CC2)C2CC2)cc2c3c(ncn3C)c(Nc3cc(C)n(C)n3)nc21
In short: as §1

[6] = compound: CCn1cc(-c2ccnc3[nH]c(-c4cccc(CN(C)C)c4)cc23)c(-c2ccc(NC(=O)N(C)C)cc2)n1
In short: as §1

[7] = compound: CN1CCC(CNc2ccc3ncc(-c4cccc(OC(F)(F)F)c4)n3n2)CC1
In short: as §1

[8] = compound: CN1CCN(CCOc2cc(OC3CCOCC3)c3c(Nc4c(Cl)ccc5c4OCO5)ncnc3c2)CC1 [saracatinib]
In short: as §1

[9] = compound: CN1CCN(c2nc(C3=C(c4c[nH]c5ccccc45)C(=O)NC3=O)c3ccccc3n2)CC1 [sotrastaurin]
In short: as §1

[10] = compound: CN1CC[C@H](c2c(O)cc(O)c3c(=O)cc(-c4ccccc4Cl)oc23)[C@H](O)C1 [alvocidib]
In short: as §1

[11] = compound: CN1CCc2c(c3ccccc3n2Cc2ccc(C(=O)NO)cc2)C1 [Tubastatin A]
In short: as §1

[12] = compound: CNC(=O)C1=CC=CC=C1NC2=NC(=NC=C2Cl)NC3=C(C=C(C=C3)N4CCOCC4)OC
In short: as §1

[13] = compound: CNc1nc(-c2ccc3c(N)n[nH]c3c2)cc(N2C[C@@H](C(=O)NC3CCCCC3)CC[C@H]2C)n1
In short: as §1

[14] = compound: COC(=O)N[C@@H](C)CNc1nccc(-c2cn(C(C)C)nc2-c2cc(Cl)cc(NS(C)(=O)=O)c2F)n1 [encorafenib]
In short: as §1

[15] = compound: COC(=O)[C@H](CCSC)NC(=O)C1=C(C=C(C=C1)NC[C@H](CS)N)C2=CC=CC=C2
In short: as §1

[16] = compound: COc1cc2nc(-c3cc(F)ccc3O)nc(N[C@@H]3CNC[C@H]3C(C)(C)O)c2cc1OC
In short: as §1

[17] = compound: CCCS(=O)(=O)Nc1ccc(F)c(C(=O)c2c[nH]c3ncc(-c4ccc(Cl)cc4)cc23)c1F [vemurafenib]
In short: as §1

[18] = compound: CNC(=O)c1ccc(Nc2ncc(C(F)(F)F)c(NCc3nccnc3N(C)S(C)(=O)=O)n2)cc1 [defactinib]
In short: as §1

[19] = compound: COc1cc(Nc2ncc3c(n2)-c2ccc(Cl)cc2C(c2c(F)cccc2OC)=NC3)ccc1C(=O)O [alisertib]
In short: as §1

[20] = compound: COc1cc2ncnc(Nc3ccc(F)c(Cl)c3)c2cc1OCCCN1CCOCC1 [gefitinib]
In short: as §1

Measured: log2 fold change

TMEM41B (UniProt Q5BJD5)
inactive: [1] -0.011 | [2] 0.302 | [3] -0.036 | [4] -0.012 | [5] -0.294 | [6] 0.075 | [7] -0.113 | [8] 0 | [9] -0.061 | [10] 0.057 | [11] 0.105 | [12] 0.049 | [13] -0.176 | [14] 0.004 | [15] -0.052 | [16] -0.055

TMEM248 (UniProt Q9NWD8)
inactive: [17] 0.021 | [3] 0.02 | [5] 0.089 | [6] -0.032 | [7] -0.086 | [8] 0.036 | [9] -0.092 | [10] 0.043 | [11] 0.14 | [12] -0.147 | [18] -0.078 | [13] -0.083 | [14] 0.098 | [15] -0.062 | [19] -0.13 | [20] -0.146

TPD52 isoform 3 (UniProt P55327)
inactive: [1] 0.136 | [3] -0.043 | [4] -0.326 | [5] 0.148 | [11] 0.145 | [12] -0.072 | [14] 0.03 | [15] 0.033 | [16] 0.061

TPT1 (UniProt E9PJF7)
inactive: [1] 0.031 | [2] -0.323 | [4] -0.048 | [6] 0.399 | [7] -0.109 | [9] -0.08 | [10] 0.249 | [12] -0.191 | [16] 0.152

TNFSF9 (UniProt P41273)
inactive: [6] 0.157 | [7] 0.047 | [10] -0.146

TMTC4 isoform 3 (UniProt Q5T4D3)
inactive: [3] -0.021 | [5] -0.18 | [8] 0.093 | [11] -0.133 | [13] 0.145 | [14] 0.03 | [15] -0.04

TMEM246 (UniProt Q9BRR3)
inactive: [2] 0.284 | [5] -0.109 | [11] -0.068 | [12] 0.041

TPRN (UniProt Q4KMQ1)
inactive: [8] -0.093 | [9] -0.118 | [13] -0.171

TMEM273 isoform 2 (UniProt Q5T292)
inactive: [2] 0.085 | [5] -0.184 | [9] 0.069 | [11] 0.096 | [12] 0.054

Taken from the results shown (2 entries):
TMEM246 (UniProt Q9BRR3)
inactive: [2] 0.284 | [5] -0.109 | [11] -0.068 | [12] 0.041

TPRN (UniProt Q4KMQ1)
inactive: [8] -0.093 | [9] -0.118 | [13] -0.171

Next records

TPRA1 (UniProt Q86W33)
inactive: [1] -0.019 | [4] -0.032 | [5] -0.102 | [6] -0.048 | [7] 0.008 | [8] 0.067 | [9] 0.004 | [10] -0.293 | [11] -0.06 | [12] 0.004 | [13] -0.067 | [16] 0.021

TPBG (UniProt Q13641)
inactive: [17] 0.009 | [3] 0.035 | [8] 0.124 | [9] -0.041 | [12] -0.127 | [18] 0.038 | [13] 0.201 | [14] -0.039 | [15] 0.064

TMEM250 (UniProt H0YL14)
inactive: [9] 0.257

TNS1 (UniProt Q9HBL0)
inactive: [2] 0.232 | [3] 0.14 | [6] -0.112 | [7] 0.215 | [9] 0.059 | [10] -0.033 | [14] -0.064 | [15] 0.096 | [19] -0.141 | [20] 0.028
